Data on four compounds can be found in US4550078A, “Method for the quantitative determination of individual polyamine components in a mixture” (Amano Seiyaku Kabushiki Kaisha, priority 1982, dated 1985).

The nature of the data set: Example 3: determination of polyamines in red blood corpuscles, steps A1 to G1.
For the compound `NCCCNCCCCNCCCN` [spermine], the “Concentration in red blood corpuscles” value turned out to be 7.0 µM. To `NCCCCNCCCN` [spermidine] belongs 25.6 µM.

On to `NCCCCN` [putrescine], for which the “Concentration in red blood corpuscles” value stood at 1.2 µM. On to `CC(=O)NCCCCNCCCN` [N^8 -acetylspermidine], for which the “Concentration in red blood corpuscles” value was determined as 2.3 µM.
